Whole data set: some 33,000 sequences, median “E-score (-0.5 to 0.5)” near -0.0034, cut for the highest 2% near 0.25. Some of the results follow.

The target in the assay is T1, Yap3 (UniProt P38749).
T1 sequence: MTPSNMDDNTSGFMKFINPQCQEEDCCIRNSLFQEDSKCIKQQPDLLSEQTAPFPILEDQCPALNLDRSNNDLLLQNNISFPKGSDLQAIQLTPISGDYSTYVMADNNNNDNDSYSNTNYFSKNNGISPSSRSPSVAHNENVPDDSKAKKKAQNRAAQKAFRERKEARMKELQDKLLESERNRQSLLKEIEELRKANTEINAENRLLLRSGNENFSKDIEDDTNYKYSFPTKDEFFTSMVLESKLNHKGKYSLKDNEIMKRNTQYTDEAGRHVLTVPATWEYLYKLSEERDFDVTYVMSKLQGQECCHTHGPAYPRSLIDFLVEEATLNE
The experiment in a line: PBM E-score (8-mer binding enrichment) (E-score (-0.5 to 0.5)); higher = stronger / more preferred TF binding. As to conditions: protein concentration: 100 nM; construct: GST-full length. An outline of the steps:
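Yeast transcription factors carrying a GST tag, as full-length proteins or DNA-binding domains, were produced by PURExpress in vitro transcription/translation. About 100-200 nM protein was applied to universal all-10-mer Agilent arrays, double-stranded by primer extension on fresh or once-stripped slides. Bound protein was detected with fluorescent anti-GST, and scans were normalised with masliner. The Universal PBM Analysis Suite gave each ungapped eight-base word, pooled with its reverse complement, an E-score, a modified Wilcoxon-Mann-Whitney statistic.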
On to ACAGGTCG, for which the “PBM E-score” value is -0.0506.

Consider CCGGCCAA, for which the “PBM E-score” value is -0.192.

As to CTACGGCA, the “PBM E-score” value was 0.13.

For GATTTAAC, the “PBM E-score” value is 0.215.

Regarding GTCGTTCA, the “PBM E-score” value was -0.0656.

Regarding ATTATCCA, the “PBM E-score” value was 0.0641.

For the sequence GGTTTCTA, the “PBM E-score” value amounted to 0.0539.

In the case of CTGTGTTA, the “PBM E-score” value amounted to 0.162.

In the case of GTATGAAC, the “PBM E-score” value was 0.0322.

As for AATCACTG, the “PBM E-score” value is 0.14.

As for AATCCGTA, the “PBM E-score” value is 0.0489.

As to GCACCCTA, the “PBM E-score” value was -0.115.

On to AATCTTTC, for which the “PBM E-score” value amounted to 0.153.

GACATACC: the “PBM E-score” value is -0.0155.

Turning to ACACTCGG, the “PBM E-score” value amounted to 0.12.

On to GCTGGGAC, for which the “PBM E-score” value was -0.188.

With ATACACTG, the “PBM E-score” value amounted to 0.0555.

In the case of AGTTCTTA, the “PBM E-score” value amounted to 0.0765.

In the case of CTATACAG, the “PBM E-score” value was -0.0586.

Regarding CGCACGAG, the “PBM E-score” value was -0.14.

As to AGGTCTGG, the “PBM E-score” value is -0.269.

As for AAGACACT, the “PBM E-score” value stood at 0.1.

For CGCGAGCG, the “PBM E-score” value is -0.19.

Regarding ATGAGAAT, the “PBM E-score” value was 0.0726.

In the case of ATATACCC, the “PBM E-score” value was found to be 0.0393.

With GGTTATAC, the “PBM E-score” value was -0.0119.

For the sequence CACGTCTA, the “PBM E-score” value came out at 0.0226.

Consider CACTGCTC, for which the “PBM E-score” value worked out at 0.0346.

In the case of CGGTGCGC, the “PBM E-score” value is -0.101.

Turning to AGGAAGCG, the “PBM E-score” value is -0.067.

ACGGACCT: the “PBM E-score” value was -0.172.

As to GGCGGGCA, the “PBM E-score” value is -0.125.

As to AACAGTCC, the “PBM E-score” value was -0.0853.

For AGATCGCA, the “PBM E-score” value was -0.00627.

For the sequence TCAGATAA, the “PBM E-score” value is 0.214.

As to ACGCCCAG, the “PBM E-score” value was -0.141.

In the case of CCGCACCC, the “PBM E-score” value is -0.121.

For the sequence CGCCGACC, the “PBM E-score” value was -0.309.

Consider AGGCATCA, for which the “PBM E-score” value is -0.261.

With CGAAGAGA, the “PBM E-score” value was 0.101.

For the sequence CCGCTAGA, the “PBM E-score” value is -0.257.

Regarding CTGGATGA, the “PBM E-score” value is -0.094.

Regarding GGGACTGA, the “PBM E-score” value is -0.228.

Take AGAAAGCT: the “PBM E-score” value was determined as 0.0735.

As for AGTAGGAG, the “PBM E-score” value is -0.205.

Consider GGGGTAAA, for which the “PBM E-score” value came to 0.0656.

For the sequence AGAAGGTG, the “PBM E-score” value is 0.029.

In the case of GCAGTGGC, the “PBM E-score” value is -0.228.

With CACCAGTA, the “PBM E-score” value amounted to 0.0697.

As for ACCGTTCC, the “PBM E-score” value is 0.0568.

Regarding CCGTGAGC, the “PBM E-score” value is -0.218.

With AGAGACGA, the “PBM E-score” value was -0.0103.

Turning to ATAGGGGC, the “PBM E-score” value was -0.13.

For AGAAGAGC, the “PBM E-score” value is -0.00967.

CCGAATCG: the “PBM E-score” value turned out to be 0.00203.

As for AGACCACA, the “PBM E-score” value was -0.132.

For ACTACGCG, the “PBM E-score” value worked out at 0.00052.

With GAACTGGC, the “PBM E-score” value was -0.133.

As for AATTATGT, the “PBM E-score” value was determined as 0.164.

For AAACGTCG, the “PBM E-score” value is -0.0414.

On to GTTGTGGA, for which the “PBM E-score” value was -0.0252.

Take CGAAAAAC: the “PBM E-score” value is 0.0504.

Take GGATGCAA: the “PBM E-score” value is 0.131.

As for AAGTGCCA, the “PBM E-score” value is -0.0862.

Turning to CAAGGCTC, the “PBM E-score” value was -0.357.

For the sequence CGAGCATA, the “PBM E-score” value came out at 0.0498.

GTAACTGA: the “PBM E-score” value is -0.0795.

As for CCCGTCCC, the “PBM E-score” value was -0.316.

Regarding CGATCGTC, the “PBM E-score” value is -0.0346.

With CCACAGTC, the “PBM E-score” value was -0.226.

Turning to CAGCGTAA, the “PBM E-score” value is -0.0239.

As for AAACATAT, the “PBM E-score” value was determined as 0.305.

Consider CATTACAA, for which the “PBM E-score” value came out at 0.28.

For the sequence AAACTGGA, the “PBM E-score” value stood at 0.0413.

For the sequence CAGTATGG, the “PBM E-score” value was determined as 0.014.

With TCAACCGA, the “PBM E-score” value was 0.152.

With AACCCCGA, the “PBM E-score” value is -0.00855.

For TGAGCGAA, the “PBM E-score” value came out at 0.194.

For GGGCCCCC, the “PBM E-score” value was -0.498.

ACCTTAGC: the “PBM E-score” value was 0.0271.

CCGTAAGA: the “PBM E-score” value is -0.0971.

CTAGAACA: the “PBM E-score” value turned out to be 0.0627.

As for AACGTCGT, the “PBM E-score” value was -0.0495.

In the case of GTGTAGTA, the “PBM E-score” value is 0.0243.

As to CTGGCTGA, the “PBM E-score” value is -0.0777.

Consider AGCGTACG, for which the “PBM E-score” value is -0.0792.

Values taken from the supplement of paper PMC3334620.
